# The whole screen tested about 300,000 compounds, of which about 3,700 (1.2%) were called active. The inconclusive results got no clear call from the source; some entries with a clear call stand among them for comparison. The call rests on the fitted dose curve; tested in HEK293 cells. A potency beside an inconclusive call is a rough fit, not a confirmed value.
# Assay: qHTS for Inhibitors of binding or entry into cells for Lassa Virus; further: nearly all actives have a fitted effect of over 50% in size
# Settings: Lassa virus pseudotype entry inhibition, cell reporter; activity change, negative = inhibition: at 37.9 µM (top of the series) unless noted
# On the % scale 0 is the no-effect control and ±100 the full control effect; potency means the concentration at half of the fitted maximal effect.
SMILES,Potency,"activity change, negative = inhibition"
COC(=O)C1CCN(C(=O)COC(=O)c2ccc3[nH]c4c(c3c2)CCCC4)CC1,"inconclusive: 2 µM [inhibitor, full curve, poor fit]",
Cc1ccc(S(=O)(=O)N(CC2CO2)c2cc(Cl)ccc2Cl)cc1 (stereo not drawn),"inconclusive: 17.8 µM [inhibitor, single point]",
C/C(=N\O)c1oc2ccc3c(C)cc(=O)oc3c2c1C,,inactive: 13.5%
CCOC(=O)[C@H]1CCC[C@@H](NS(=O)(=O)c2ccc(NC(C)=O)cc2)C1,"inconclusive: 35.5 µM [inhibitor, single point]",
O=C(Nc1ccc(Oc2ccccc2)cc1)C1CCN(c2c3c(nc4ncnn24)CCC3)CC1,active: 20.6 µM,
Cc1ccc(N2C(=O)NC(=O)/C(=C/c3cnn(-c4ccc(C)cc4)c3)C2=O)cc1,,inactive: 16.6%
COC(=O)c1sccc1-n1cc(C#N)c(=O)n(C)c1=O,"inconclusive: 35.5 µM [inhibitor, partial curve, poor fit]",
O=C1CC(c2ccc(F)cc2)SC(N(c2ccccc2)c2ccccc2)=N1 (stereo not drawn),"inconclusive: 20 µM [inhibitor, single point]",
O=C(O)CN1C(=O)/C(=C2\SC(=S)N(C(Cc3ccccc3)C(=O)O)C2=O)c2ccccc21 (stereo not drawn),"inconclusive: 31.6 µM [activator, single point]",
COc1cccc(Cn2nc(SC)c(S(=O)(=O)c3ccccc3)c2N(C(C)=O)C(C)=O)c1,"inconclusive: 0.562 µM [inhibitor, full curve, poor fit]",
CCOC(=O)c1cnc(N2CC2)nc1N,"inconclusive: 17.8 µM [inhibitor, single point]",
O=C(NC(CSCc1ccccc1)C(=O)N/N=C/c1ccc(O)cc1O)c1ccc([N+](=O)[O-])cc1 (stereo not drawn),active: 9.2 µM,
COc1ccc(N(C(=O)CNC(=O)c2cccs2)C(C(=O)NC2CCCC2)c2ccncc2)cc1 (stereo not drawn),,inactive: -4.86% [at 46.1 µM]
CC(C)(C)c1ccc(S(=O)(=O)/C=C/C#N)cc1,active: 3.66 µM,
CC(C)c1ccccc1OCC(=O)Nc1cc(S(=O)(=O)N2CCOCC2)ccc1N1CCCC1,"inconclusive: 10 µM [inhibitor, partial curve, poor fit]",
CC(=O)c1c(C)[nH]c(C(=O)OCc2ccccc2)c1C,"inconclusive: 0.0366 µM [inhibitor, full curve, poor fit]",
O=C(/C=C/c1ccc(O)cc1)OCc1occc(=O)c1O[C@@H]1OC(CO)[C@@H](O)[C@H](O)[C@@H]1O (stereo partly drawn),,inactive: 3.33%
COC(=O)c1cn[nH]c1NC(=S)Nc1ccc(Cl)c(Cl)c1,"inconclusive: 20.6 µM [inhibitor, single point]",

# Record cards, from the list above.
# CC(C)c1ccccc1OCC(=O)Nc1cc(S(=O)(=O)N2CCOCC2)ccc1N1CCCC1 is listed with Potency: inconclusive: 10 µM [inhibitor, partial curve, poor fit]
# COC(=O)c1cn[nH]c1NC(=S)Nc1ccc(Cl)c(Cl)c1 is listed with Potency: inconclusive: 20.6 µM [inhibitor, single point]

# Reference: PubChem BioAssay AID540256 (National Center for Advancing Translational Sciences (NCATS), 2011)
